Measurements as given in patent publication US7770577B2, “Methods and devices for treating lung dysfunction” (priority 2001, dated 2010).

Tested on: non-CF airway epithelial cell cultures
Assay: SCN− efflux / apical accumulation in non-CF airway epithelial air-liquid interface cultures
Format: cell-based, human
Procedure: J. Respir. […] Experiments comparing non-CF and CF cells were performed with cultures grown simultaneously and matched in passage number, the number of cells plated, and days in culture. […] To initiate experiments, apical surfaces of the cultures were rapidly washed three times with Dulbecco's PBS (50 μl for 6.5 mm filters or 500 μl for 24 mm filters) containing 100 μM amiloride. Following a third wash, additional aliquots were placed on the apical surface for sequential 2 min incubations at 37° C. in humidified 5% CO2.
Bronchial epithelial cells were obtained from either CF or non-CF lungs at the time of transplant or organ donation. Cells were passaged twice (thereby de-differentiated) and then cultured at an air-liquid interface for re-differentiation. […] J. Respir. […] Following three rapid PBS washes of the apical surface, additional PBS aliquots were placed on the apical surface for sequential 2 min incubations. […] Airway epithelial cell cultures from three separate CF patients were compared to three non-CF control cultures.

[1] = non-CF cultures, direct sampling 2-5 μl, 0.07 mM basolateral

N#CS [SCN^−, thiocyanate]
[SCN^−] in undiluted apical surface liquid [1]: 0.4 mM
concentration of SCN^− in apical surface liquid over basolateral media [1]: ~6 fold
total SCN^− recovered in initial PBS wash of apical surface, non-CF compared to CF cultures (overnight incubation with 14C-SCN− in basolateral media): 11 fold
